Some of the results follow.
Compound: CN1CCN(CCOc2cc(OC3CCOCC3)c3c(Nc4c(Cl)ccc5c4OCO5)ncnc3c2)CC1 [saracatinib]
Assay: log2 fold change, soluble protein after heating vs DMSO (PISA); higher = thermal stabilisation; K562 cells, 10 uM, 30 min; active = over 0.2 and 3.5 SD of the protein, either way, in both replicates (recomputed)
Summary of the method: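 K562 cells at 2×10^6 cells/mL were treated with 10 μM compound for 30 min. Aliquots were heated for 3 min across 48°C-58°C, pooled, and extracted in PBS with 0.5% NP-40 at 4°C; soluble protein was the supernatant after 21,000xg for 90 min. Soluble protein was quantified by TMTpro 16plex LC-MS/MS with channel sums equalised, and reported as log2 fold change in thermal stability against DMSO controls, with values from duplicates.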

Sequences of proteins named here, by UniProt entry; tags and fusion partners are left off. A change or cut given only in a name is not applied to a line headed by its entry.
UniProt P14174: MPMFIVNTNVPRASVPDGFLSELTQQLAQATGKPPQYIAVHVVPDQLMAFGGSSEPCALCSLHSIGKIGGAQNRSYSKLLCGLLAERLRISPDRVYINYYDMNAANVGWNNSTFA
UniProt Q8N4V1: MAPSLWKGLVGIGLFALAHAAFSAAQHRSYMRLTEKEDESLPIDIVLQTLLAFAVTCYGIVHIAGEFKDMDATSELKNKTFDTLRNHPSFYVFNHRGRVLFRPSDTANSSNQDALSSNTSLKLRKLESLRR
UniProt Q96T76: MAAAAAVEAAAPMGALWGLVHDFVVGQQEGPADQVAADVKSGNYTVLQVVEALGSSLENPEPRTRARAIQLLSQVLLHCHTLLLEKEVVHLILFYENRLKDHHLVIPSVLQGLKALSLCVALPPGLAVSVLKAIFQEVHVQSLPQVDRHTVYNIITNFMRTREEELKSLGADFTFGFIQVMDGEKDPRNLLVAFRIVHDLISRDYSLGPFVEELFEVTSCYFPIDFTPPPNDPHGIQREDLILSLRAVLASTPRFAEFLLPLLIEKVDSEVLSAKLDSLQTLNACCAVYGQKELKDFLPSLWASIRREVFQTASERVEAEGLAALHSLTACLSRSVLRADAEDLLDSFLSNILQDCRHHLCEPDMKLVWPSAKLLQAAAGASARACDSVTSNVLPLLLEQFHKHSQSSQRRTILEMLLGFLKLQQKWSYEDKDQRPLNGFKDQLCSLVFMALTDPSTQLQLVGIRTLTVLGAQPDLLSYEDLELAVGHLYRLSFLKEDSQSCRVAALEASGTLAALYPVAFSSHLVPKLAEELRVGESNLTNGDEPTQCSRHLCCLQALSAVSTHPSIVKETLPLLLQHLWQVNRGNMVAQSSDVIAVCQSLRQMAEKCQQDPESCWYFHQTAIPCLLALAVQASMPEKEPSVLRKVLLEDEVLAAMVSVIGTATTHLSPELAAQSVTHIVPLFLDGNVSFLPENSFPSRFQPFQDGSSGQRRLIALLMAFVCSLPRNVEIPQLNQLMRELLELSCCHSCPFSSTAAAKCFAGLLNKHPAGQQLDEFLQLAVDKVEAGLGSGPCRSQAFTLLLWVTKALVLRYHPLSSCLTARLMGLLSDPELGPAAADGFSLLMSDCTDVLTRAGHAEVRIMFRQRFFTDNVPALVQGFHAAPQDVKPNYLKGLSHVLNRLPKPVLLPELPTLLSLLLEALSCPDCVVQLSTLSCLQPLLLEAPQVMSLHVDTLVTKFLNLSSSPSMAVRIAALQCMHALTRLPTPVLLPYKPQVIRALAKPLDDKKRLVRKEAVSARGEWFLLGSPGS
UniProt O96033: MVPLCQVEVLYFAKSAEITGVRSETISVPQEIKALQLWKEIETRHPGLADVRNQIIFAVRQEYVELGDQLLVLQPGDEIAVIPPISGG
UniProt P51948: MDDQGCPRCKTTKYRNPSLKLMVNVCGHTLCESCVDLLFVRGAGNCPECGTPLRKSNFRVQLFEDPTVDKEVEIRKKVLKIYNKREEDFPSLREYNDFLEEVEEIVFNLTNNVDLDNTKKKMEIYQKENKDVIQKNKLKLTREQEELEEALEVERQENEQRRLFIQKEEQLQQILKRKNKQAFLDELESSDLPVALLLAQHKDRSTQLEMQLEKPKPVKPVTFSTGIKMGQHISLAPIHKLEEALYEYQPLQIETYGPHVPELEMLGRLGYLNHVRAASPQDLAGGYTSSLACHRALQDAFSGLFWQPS
UniProt Q9H081: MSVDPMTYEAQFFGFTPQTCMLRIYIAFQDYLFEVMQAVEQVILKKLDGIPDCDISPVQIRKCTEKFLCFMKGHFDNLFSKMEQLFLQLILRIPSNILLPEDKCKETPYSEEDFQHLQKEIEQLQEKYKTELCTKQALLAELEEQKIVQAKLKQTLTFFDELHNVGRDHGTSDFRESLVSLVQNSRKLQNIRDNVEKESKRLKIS
UniProt Q96BX8: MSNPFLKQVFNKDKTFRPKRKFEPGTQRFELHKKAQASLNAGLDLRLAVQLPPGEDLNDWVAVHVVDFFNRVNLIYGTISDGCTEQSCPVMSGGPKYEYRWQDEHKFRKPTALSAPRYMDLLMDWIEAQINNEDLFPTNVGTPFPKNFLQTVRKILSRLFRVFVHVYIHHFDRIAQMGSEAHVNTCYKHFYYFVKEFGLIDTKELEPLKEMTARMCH
UniProt Q9BVC4, whole entry, looked up: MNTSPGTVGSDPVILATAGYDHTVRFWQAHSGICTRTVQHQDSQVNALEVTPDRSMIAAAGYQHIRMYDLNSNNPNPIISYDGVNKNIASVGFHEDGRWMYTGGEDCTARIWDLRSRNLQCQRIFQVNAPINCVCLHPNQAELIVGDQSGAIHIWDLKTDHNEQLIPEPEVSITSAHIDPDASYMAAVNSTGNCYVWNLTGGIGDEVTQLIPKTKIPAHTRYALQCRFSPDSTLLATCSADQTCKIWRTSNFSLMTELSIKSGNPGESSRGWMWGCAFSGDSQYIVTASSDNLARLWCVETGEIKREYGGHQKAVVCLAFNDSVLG
UniProt Q9BWT6: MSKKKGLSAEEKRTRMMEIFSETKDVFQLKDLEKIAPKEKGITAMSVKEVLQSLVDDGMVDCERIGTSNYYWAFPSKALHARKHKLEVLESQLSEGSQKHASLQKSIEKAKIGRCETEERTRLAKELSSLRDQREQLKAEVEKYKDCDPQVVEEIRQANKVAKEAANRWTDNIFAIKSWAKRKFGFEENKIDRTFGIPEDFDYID
UniProt Q9Y5U8: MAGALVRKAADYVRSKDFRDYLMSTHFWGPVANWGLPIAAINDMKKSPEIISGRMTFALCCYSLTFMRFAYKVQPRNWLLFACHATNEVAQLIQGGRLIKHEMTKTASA
UniProt Q14149: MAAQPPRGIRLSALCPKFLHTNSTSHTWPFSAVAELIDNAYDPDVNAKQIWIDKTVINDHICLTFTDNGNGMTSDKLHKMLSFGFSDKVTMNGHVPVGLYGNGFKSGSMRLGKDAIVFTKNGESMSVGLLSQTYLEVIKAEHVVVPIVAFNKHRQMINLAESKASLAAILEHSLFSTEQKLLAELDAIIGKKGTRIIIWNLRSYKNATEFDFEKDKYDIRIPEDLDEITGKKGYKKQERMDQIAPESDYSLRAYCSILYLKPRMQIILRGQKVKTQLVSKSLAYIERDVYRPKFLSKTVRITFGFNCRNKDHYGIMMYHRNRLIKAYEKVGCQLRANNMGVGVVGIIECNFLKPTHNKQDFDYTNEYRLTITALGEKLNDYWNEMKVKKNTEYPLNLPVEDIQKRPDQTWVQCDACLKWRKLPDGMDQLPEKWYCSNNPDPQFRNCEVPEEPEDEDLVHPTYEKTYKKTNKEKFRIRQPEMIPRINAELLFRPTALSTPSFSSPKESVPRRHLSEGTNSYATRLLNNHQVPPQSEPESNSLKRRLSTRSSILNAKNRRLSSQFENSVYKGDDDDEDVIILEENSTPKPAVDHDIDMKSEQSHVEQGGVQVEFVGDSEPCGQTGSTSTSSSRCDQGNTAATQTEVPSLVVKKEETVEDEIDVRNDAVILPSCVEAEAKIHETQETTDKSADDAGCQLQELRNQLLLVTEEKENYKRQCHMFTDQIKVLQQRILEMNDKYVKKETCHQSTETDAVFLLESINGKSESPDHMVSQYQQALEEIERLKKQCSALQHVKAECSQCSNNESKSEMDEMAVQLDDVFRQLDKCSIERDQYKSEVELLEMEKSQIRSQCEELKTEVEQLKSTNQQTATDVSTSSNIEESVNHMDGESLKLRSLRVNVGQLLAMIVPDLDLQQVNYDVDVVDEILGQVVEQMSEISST
UniProt Q7L1V2: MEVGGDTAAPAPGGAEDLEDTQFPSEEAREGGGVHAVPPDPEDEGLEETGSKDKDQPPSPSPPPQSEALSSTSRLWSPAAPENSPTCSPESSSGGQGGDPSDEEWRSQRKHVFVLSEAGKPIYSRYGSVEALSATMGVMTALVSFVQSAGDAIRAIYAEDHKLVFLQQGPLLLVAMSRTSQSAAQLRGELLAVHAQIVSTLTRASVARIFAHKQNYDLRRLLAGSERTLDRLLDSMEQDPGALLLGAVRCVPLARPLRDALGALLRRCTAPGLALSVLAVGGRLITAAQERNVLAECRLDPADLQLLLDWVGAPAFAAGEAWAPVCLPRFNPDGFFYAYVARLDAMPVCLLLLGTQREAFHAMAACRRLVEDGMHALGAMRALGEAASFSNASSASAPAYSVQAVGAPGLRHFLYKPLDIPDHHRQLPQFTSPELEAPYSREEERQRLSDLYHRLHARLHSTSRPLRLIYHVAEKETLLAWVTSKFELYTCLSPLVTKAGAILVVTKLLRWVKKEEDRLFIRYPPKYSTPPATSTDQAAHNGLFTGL
UniProt P25325: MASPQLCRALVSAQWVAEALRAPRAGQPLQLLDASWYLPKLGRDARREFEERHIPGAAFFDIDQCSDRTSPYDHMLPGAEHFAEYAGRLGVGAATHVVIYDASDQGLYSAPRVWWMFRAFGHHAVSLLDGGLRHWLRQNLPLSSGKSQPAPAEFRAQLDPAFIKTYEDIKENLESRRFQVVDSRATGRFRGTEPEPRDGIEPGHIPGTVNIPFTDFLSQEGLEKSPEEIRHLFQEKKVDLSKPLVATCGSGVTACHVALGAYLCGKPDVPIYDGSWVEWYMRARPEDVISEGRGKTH
UniProt Q9HCE1: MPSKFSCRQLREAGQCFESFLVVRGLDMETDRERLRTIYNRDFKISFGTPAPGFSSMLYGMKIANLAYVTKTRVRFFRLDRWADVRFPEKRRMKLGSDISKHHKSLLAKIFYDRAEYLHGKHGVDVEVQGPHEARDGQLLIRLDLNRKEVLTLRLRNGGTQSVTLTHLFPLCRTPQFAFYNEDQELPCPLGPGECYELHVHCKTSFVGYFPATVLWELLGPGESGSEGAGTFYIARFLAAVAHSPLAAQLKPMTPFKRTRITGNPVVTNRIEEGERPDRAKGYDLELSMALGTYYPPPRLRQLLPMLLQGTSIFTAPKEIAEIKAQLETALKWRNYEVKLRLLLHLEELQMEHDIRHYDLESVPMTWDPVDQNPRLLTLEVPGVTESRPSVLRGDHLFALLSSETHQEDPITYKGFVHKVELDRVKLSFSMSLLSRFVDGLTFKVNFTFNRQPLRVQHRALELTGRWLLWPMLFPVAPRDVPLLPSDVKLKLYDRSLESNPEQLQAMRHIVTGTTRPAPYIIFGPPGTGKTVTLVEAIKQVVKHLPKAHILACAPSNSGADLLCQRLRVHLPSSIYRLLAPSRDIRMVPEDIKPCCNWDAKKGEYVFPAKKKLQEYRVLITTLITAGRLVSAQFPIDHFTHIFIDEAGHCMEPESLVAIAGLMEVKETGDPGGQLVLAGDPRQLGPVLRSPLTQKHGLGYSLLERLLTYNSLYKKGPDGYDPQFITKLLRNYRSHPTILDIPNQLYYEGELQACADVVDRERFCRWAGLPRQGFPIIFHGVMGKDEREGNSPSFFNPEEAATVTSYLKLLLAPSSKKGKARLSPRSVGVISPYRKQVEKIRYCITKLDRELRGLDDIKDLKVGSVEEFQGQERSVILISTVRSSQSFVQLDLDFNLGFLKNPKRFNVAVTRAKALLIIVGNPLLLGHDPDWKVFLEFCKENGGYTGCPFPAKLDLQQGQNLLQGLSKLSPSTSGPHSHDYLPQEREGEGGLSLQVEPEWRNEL
UniProt Q6WCQ1: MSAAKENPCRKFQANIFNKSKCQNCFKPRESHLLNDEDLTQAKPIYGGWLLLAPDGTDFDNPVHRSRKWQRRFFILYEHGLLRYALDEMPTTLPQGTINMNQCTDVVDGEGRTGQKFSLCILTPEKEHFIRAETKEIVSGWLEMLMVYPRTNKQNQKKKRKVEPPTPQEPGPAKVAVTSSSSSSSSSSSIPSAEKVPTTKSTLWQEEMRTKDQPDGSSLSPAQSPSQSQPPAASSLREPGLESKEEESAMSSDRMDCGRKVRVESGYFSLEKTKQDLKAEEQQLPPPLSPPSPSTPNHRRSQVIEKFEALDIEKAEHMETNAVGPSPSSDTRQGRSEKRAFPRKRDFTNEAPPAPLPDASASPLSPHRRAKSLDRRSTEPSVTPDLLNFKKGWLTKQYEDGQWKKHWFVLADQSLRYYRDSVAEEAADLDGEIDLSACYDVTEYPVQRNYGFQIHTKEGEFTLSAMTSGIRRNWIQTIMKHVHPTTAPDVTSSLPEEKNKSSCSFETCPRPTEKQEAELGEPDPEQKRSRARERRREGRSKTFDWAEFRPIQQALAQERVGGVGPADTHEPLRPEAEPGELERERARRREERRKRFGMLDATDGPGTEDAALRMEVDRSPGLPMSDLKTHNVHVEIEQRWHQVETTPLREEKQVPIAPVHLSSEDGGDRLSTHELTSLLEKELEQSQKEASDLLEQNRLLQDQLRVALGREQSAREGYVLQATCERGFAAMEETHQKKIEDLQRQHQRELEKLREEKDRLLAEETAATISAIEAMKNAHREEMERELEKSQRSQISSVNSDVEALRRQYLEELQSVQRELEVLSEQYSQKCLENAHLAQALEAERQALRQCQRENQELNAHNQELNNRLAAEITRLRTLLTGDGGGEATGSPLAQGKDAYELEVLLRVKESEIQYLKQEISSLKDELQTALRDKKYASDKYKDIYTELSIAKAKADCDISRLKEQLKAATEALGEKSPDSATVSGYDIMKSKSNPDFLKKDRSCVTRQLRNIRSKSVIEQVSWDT

| Target | log2 fold change |
| --- | --- |
| MRPL47 (UniProt Q9HD33) | inactive: -0.168 |
| MLXIP (UniProt Q9HAP2) | inactive: -0.116 |
| MRPL4 (UniProt Q9BYD3) | inactive: -0.08 |
| MIF (UniProt P14174) | inactive: -0.029 |
| MMGT1 (UniProt Q8N4V1) | inactive: 0.007 |
| MMS19 isoform 8 (UniProt Q96T76) | inactive: -0.013 |
| MOCS2 (UniProt O96033) | inactive: 0.078 |
| MNAT1 (UniProt P51948) | inactive: -0.017 |
| MRPL53 (UniProt Q96EL3) | inactive: -0.247 |
| MIS12 (UniProt Q9H081) | inactive: 0.04 |
| MRPL37 (UniProt Q9BZE1) | inactive: -0.118 |
| MKRN2 (UniProt Q9H000) | inactive: -0.203 |
| MITD1 (UniProt Q8WV92) | inactive: -0.031 |
| MIEN1 (UniProt Q9BRT3) | inactive: 0.049 |
| MKRN3 (UniProt Q13064) | inactive: 0.026 |
| MICU1 isoform 3 (UniProt Q9BPX6) | inactive: -0.073 |
| MOB3A (UniProt Q96BX8) | inactive: 0.155 |
| MLST8 (UniProt Q9BVC4) | inactive: -0.124 |
| MND1 (UniProt Q9BWT6) | inactive: 0.006 |
| MRFAP1 (UniProt Q9Y605) | inactive: -0.118 |

3 entries picked at random from those above:

| Target | log2 fold change |
| --- | --- |
| MIEN1 (UniProt Q9BRT3) | inactive: 0.049 |
| MITD1 (UniProt Q8WV92) | inactive: -0.031 |
| MLST8 (UniProt Q9BVC4) | inactive: -0.124 |

(list continues)

| Target | log2 fold change |
| --- | --- |
| MRPL34 (UniProt Q9BQ48) | inactive: -0.09 |
| MICOS13 (UniProt Q5XKP0) | inactive: 0.039 |
| MPC1 (UniProt Q9Y5U8) | inactive: 0.064 |
| MRPL46 (UniProt Q9H2W6) | inactive: -0.071 |
| MORC3 (UniProt Q14149) | inactive: 0 |
| MIEF1 (UniProt Q9NQG6) | inactive: -0.016 |
| MON1B (UniProt Q7L1V2) | inactive: 0.005 |
| MPP1 (UniProt Q00013) | inactive: -0.023 |
| MPST isoform 2 (UniProt P25325) | inactive: -0.012 |
| MICU2 (UniProt Q8IYU8) | inactive: 0 |
| MOV10 (UniProt Q9HCE1) | inactive: 0.007 |
| MPRIP isoform 2 (UniProt Q6WCQ1) | inactive: 0.036 |
| MIEF1 (UniProt L0R8F8) | inactive: -0.068 |
| MRPL50 (UniProt Q8N5N7) | inactive: 0.148 |
| MINK1 (UniProt Q8N4C8) | inactive: -0.052 |
| MRPL28 (UniProt Q13084) | inactive: -0.166 |
| MMAA (UniProt Q8IVH4) | inactive: 0.039 |
| MRPL42 (UniProt Q9Y6G3) | inactive: -0.006 |
| MPHOSPH10 (UniProt O00566) | inactive: -0.123 |
